Tested on: dendritic cell (DC)
Assay: Sarcosine Assay kit: amount of sarcosine per cell in DCs
Type: cell-based

SMILES: CNCC(=O)O [sarcosine, N-methylglycine]
- Amount of sarcosine per cell compared with cells cultured in 20 mM sarcosine (DCs cultured in 20 mM sarcosine, then electroporated at 300V): neither electroporation with 0.5 mM sarcosine nor electroporation with siRNA against SARDH increased the amount of sarcosine per cell
- Intracellular level of sarcosine in a dendritic cell (physiological level, no sarcosine treatment): 0.13±0.06 pg/cell
